PMC12921443
Results are given in words; binding and its absence hold for the method and conditions named. Some entries that bind do so weakly or less than the wild type.

T1: MITOGEN … PROTEIN KINASE 3 (MPK3), full-length (Arabidopsis) (UniProt Q39023)
T1 sequence: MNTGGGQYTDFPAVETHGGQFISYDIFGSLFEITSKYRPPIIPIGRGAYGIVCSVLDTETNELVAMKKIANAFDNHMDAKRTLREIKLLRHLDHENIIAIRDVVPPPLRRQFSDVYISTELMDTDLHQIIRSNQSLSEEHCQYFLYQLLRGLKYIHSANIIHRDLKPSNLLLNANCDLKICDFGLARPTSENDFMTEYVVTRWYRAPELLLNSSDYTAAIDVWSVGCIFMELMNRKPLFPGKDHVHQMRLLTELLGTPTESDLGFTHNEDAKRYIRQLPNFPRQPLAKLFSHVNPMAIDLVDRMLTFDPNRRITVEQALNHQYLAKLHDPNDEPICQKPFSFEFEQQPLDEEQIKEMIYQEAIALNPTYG


target: T1, MITOGEN … PROTEIN KINASE 3 (MPK3), full-length (Arabidopsis); assay: two-hybrid; MYB93 constructs in pGADT7, MPK3 in pGBKT7; S. cerevisiae AH109; growth on SD -AHLW agar plates, 2-3 days at 30 °C; empty pGBKT7 as control

binding	Binder
no binding	MYB93 C-terminal region, amino acids 115-365 (MYB93-C345) (domain or fragment, UniProt Q9S9Z2 115-365) KLIQMGIDPVTHQPRTDLFASLPQLIALANLKDLIEQTSQFSSMQGEAAQLANLQYLQRMFNSSASLTNNNGNNFSPSSILDIDQHHAMNLLNSMVSWNKDQNPAFDPVLELEANDQNQDLFPLGFIIDQPTQPLQQQKYHLNNSPSELPSQGDPLLDHVPFSLQTPLNSEDHFIDNLVKHPTDHEHEHDDNPSSWVLPSLIDNNPKTVTSSLPHNNPADASSSSSYGGCEAASFYWPDICFDESLMNVIS
binds	MYB93 full-length (Arabidopsis MYB93 transcription factor) (protein, UniProt Q9S9Z2 1-365) MGRSPCCDENGLKKGPWTPEEDQKLIDYIHKHGHGSWRALPKLADLNRCGKSCRLRWTNYLRPDIKRGKFSAEEEQTILHLHSILGNKWSAIATHLQGRTDNEIKNFWNTHLKKKLIQMGIDPVTHQPRTDLFASLPQLIALANLKDLIEQTSQFSSMQGEAAQLANLQYLQRMFNSSASLTNNNGNNFSPSSILDIDQHHAMNLLNSMVSWNKDQNPAFDPVLELEANDQNQDLFPLGFIIDQPTQPLQQQKYHLNNSPSELPSQGDPLLDHVPFSLQTPLNSEDHFIDNLVKHPTDHEHEHDDNPSSWVLPSLIDNNPKTVTSSLPHNNPADASSSSSYGGCEAASFYWPDICFDESLMNVIS
no binding	MYB93 C-terminal region, amino acids 156-365 (MYB93-C468) (domain or fragment, UniProt Q9S9Z2 156-365) SSMQGEAAQLANLQYLQRMFNSSASLTNNNGNNFSPSSILDIDQHHAMNLLNSMVSWNKDQNPAFDPVLELEANDQNQDLFPLGFIIDQPTQPLQQQKYHLNNSPSELPSQGDPLLDHVPFSLQTPLNSEDHFIDNLVKHPTDHEHEHDDNPSSWVLPSLIDNNPKTVTSSLPHNNPADASSSSSYGGCEAASFYWPDICFDESLMNVIS
